# Measured values as given in patent publication US9132136B2, “Pharmaceutical combination” (HOFFMANN-LA ROCHE INC., priority 2010, dated 2015).
# Entries after “also recorded” stand apart in the source; their conditions may differ. For at least one compound, name, drawing or mass did not settle the structure.
# Columns and labels:
# [1] = system: L-687414-induced hyperlocomotion in mice; experiment: L-687414-induced locomotion test in mice; format: in vivo; details: alone, 0.02-0.06 mg/kg p.o.
# [2] = system: cocaine-induced hyperlocomotor activity in mice; experiment: Cocaine-induced locomotion test in mice; format: in vivo; details: tested alone, 0.3 mg/kg p.o.
structure (smiles),measurement,setting,value
"Cc1cc2c(s1)Nc1ccccc1N=C2N1CCN(C)CC1 [olanzapine, reference compound]",L-687414-induced locomotor activity,[1],non-active
same,cocaine-induced hyperlocomotor activity,[2],partially active; also recorded: partially antagonized
